# From PubChem BioAssay AID493014 (National Center for Advancing Translational Sciences (NCATS), 2011)
# The list shows a part of the results. Further columns of the screen follow, without active or inactive calls. Most of these compounds were active or inconclusive in the main read-out, so they are no random draw. Potencies come from curve fits of mixed quality, noted in brackets.
# Assay: qHTS Assay to Find Inhibitors of Chronic Active B-Cell Receptor Signaling
# Details: ABC-DLBCL IkBa-CBG/CBR reporter, luminescence ratio (green luciferase fused to IkBa over red control in TMD8 lymphoma cells), 4 h
# Outline: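 TMD8 human ABC-DLBCL cells with doxycycline-inducible IκBα–green luciferase fusion and unfused red luciferase, in 0.5% FBS medium; compounds up to 46 uM, 4 h at 37C. Green/red luminescence ratio, filter-overlap corrected, fitted to concentration-response curves.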
# [1] = measured here: CBR red luminescence, cell number
# [2] = measured here: IkBa-CBG green luminescence
SMILES,AC50 [1],AC50 [2]
N/C(=N\OC(=O)CCc1ccccc1)c1ccc(Br)cc1,"0.282 µM [rising, full curve, poor fit]",
COCCN=C1NN=C(c2ccc(NC(C)=O)cc2)CS1,"15.8 µM [rising, single point]",
Fc1ccc(-c2nnc(-c3ccc(F)cc3)o2)cc1,"22.4 µM [rising, partial curve, poor fit]",
Nc1ncnc(N2CCc3ccccc32)c1[N+](=O)[O-],"4.47 µM [falling, partial curve, poor fit]",
COc1ccc(C)c(S(=O)(=O)Nc2ccc(OCC(=O)O)cc2)c1,"6.51 µM [falling, single point]",
CC(C)(C)c1ccc(OCCNC(=O)c2ncn[nH]2)cc1,"20.6 µM [rising, single point]",
CC(OC(=O)CN1C(=O)C2CC=CCC2C1=O)C(=O)Nc1ccc(F)cc1Cl (stereo not given),"11.2 µM [rising, single point]",
O=C(CN1C(=O)NC2(CCCCCCC2)C1=O)Nc1cccc(Br)c1,"8.2 µM [falling, single point]",
COc1ccc2nc(SCC(=O)Nc3ccc4[nH]c(=O)[nH]c4c3)[nH]c2c1,"0.82 µM [rising, full curve, poor fit]",
CCOc1cc2[nH]c(=S)n(CCCN3CCOCC3)c(=O)c2cc1OCC,"0.092 µM [falling, full curve, poor fit]",
COc1ccccc1NC(=O)CCN1C(=O)/C(=C\c2cc(OC)c(OC)c(OC)c2)SC1=S,"0.0891 µM [rising, full curve, poor fit]",
CCC(C)Oc1cccc(OCCCCN2C(=O)NC(C)(C)C2=O)c1 (stereo not given),"0.13 µM [rising, partial curve, poor fit]",
CCOc1ccc(C(=O)/C=C/c2ccc(SC)cc2)cc1,"17.8 µM [falling, single point]",
COc1ccccc1/C=C/C(=O)OCc1nc2ccccc2c(=O)[nH]1,"11.2 µM [falling, partial curve, poor fit]",
CCCc1cc(-c2[nH]ncc2-c2ccc3c(c2)OCCCO3)c(O)cc1O,"11.2 µM [falling, partial curve]",
O=C(NCc1ccco1)C(c1ccco1)N(CCc1ccccc1)C(=O)Cn1nnc2ccccc21 (stereo not given),"20 µM [falling, single point]",
C/C(=N\NC(=O)c1ccc(NS(=O)(=O)c2cccs2)cc1)c1ccncc1,"10 µM [falling, partial curve]",
CN1CCCN(C(=O)c2cc(-c3ccc(Cl)c(Cl)c3Cl)nc3ccccc23)CC1,"10 µM [falling, partial curve]",
COC(=O)c1ccccc1NC(=O)c1ccc2c(c1)OCCCO2,"10 µM [falling, partial curve, poor fit]",
CC(=O)c1cc(-c2ccccc2)n(CCC(=O)NCc2cccs2)c1C,"5.17 µM [rising, full curve, poor fit]",
O=C(N/N=C/c1ccccc1OC(=O)N1CCOCC1)c1cccs1,"12.6 µM [falling, partial curve]",

SMILES,AC50 [1],AC50 [2]
CCCCSCCCNC(=O)c1ccc(CS(=O)(=O)c2ccccc2OC)o1,"6.31 µM [falling, single point]",
CC(C)c1nnc(NC(=O)CCS(=O)(=O)c2nc(-c3cccs3)cc(C(F)(F)F)n2)s1,"7.94 µM [falling, partial curve]",
CC1=C(C(=O)N2CCOCC2)C(c2ccsc2)C2=C(CCCC2=O)N1 (stereo not given),"23.1 µM [rising, partial curve, poor fit]",
Cn1c(=O)c2c(ncn2CC(=O)OCC(=O)Nc2ccc(Cl)cc2)n(C)c1=O,"0.366 µM [rising, full curve, poor fit]",
COc1ccccc1NC(=O)Cc1nn(C)c(=O)c2ccccc12,"20.6 µM [falling, partial curve]",
Cn1c2ccccc2c2c(C(=O)N3CCN(c4ccc(F)cc4)CC3)cn(C3CCCC3)c(=O)c21,"35.5 µM [falling, single point]",
COCCOC(=O)/C=C1/NC(=O)CS1,"29.1 µM [falling, partial curve, poor fit]",
COc1ccc(C2/C=C\CN(C(=O)C3CCCC3)[C@H](Cc3ccccc3)C(=O)N2Cc2ccc(F)cc2)cc1 (stereo not given in full),"11.2 µM [falling, single point]",
Nc1nc(-c2ccc(-n3nncc3-c3ccco3)cc2)cs1,"35.5 µM [falling, single point]",
CCCCCCCCOC(=O)c1c(CSC(=N)N)n(C)c2cc(Br)c(OC(C)=O)cc12,"5.62 µM [rising, single point]",
O=C(O)CCCCCCCCc1cn(CC2CCCCC2)nn1,"0.631 µM [rising, full curve]",
Cc1ccccc1OCC(=O)Nc1nc2ccccc2[nH]1,"11.2 µM [falling, partial curve]",
Nc1nc(Nc2ccc(Cl)cc2)nc(NCc2ccco2)c1[N+](=O)[O-],"12.6 µM [rising, partial curve]",
COc1ccc(OCC(=O)Nc2ccccc2OC(F)F)cc1,"9.2 µM [falling, full curve, poor fit]",
Cn1c(=O)[nH]c(=O)c2c1nc(SCC(=O)O)n2Cc1ccccc1,"35.5 µM [rising, partial curve, poor fit]",
O=C1CCN(CCc2ccccc2)CCN1[C@H](CSc1ccccc1)Cc1ccccc1,"35.5 µM [falling, single point]","14.1 µM [rising, partial curve, poor fit]"
COC(=O)c1cccc2c1-c1ccccc1/C2=N\NC(N)=O,"8.91 µM [falling, partial curve, poor fit]",
CCOc1ccccc1N(C(=O)Nc1ccc(Cl)cc1)C1=NCCS1,"4.61 µM [rising, full curve, poor fit]",
CC1(C(=O)OCC(=O)Nc2ccc(Cl)cn2)CC1(Cl)Cl (stereo not given),"18.4 µM [falling, single point]",
CC(=O)c1c(C)[nH]c(C(=O)Nc2nc(-c3ccc(-c4ccccc4)cc3)cs2)c1C,"32.6 µM [rising, partial curve, poor fit]",
CC1CCN(c2ncnc3c2cnn3-c2ccccc2)CC1,"0.731 µM [rising, partial curve, poor fit]",

# Reformatted tab-delimited: entries from further up.
SMILES	AC50 [1]	AC50 [2]
COCCN=C1NN=C(c2ccc(NC(C)=O)cc2)CS1	15.8 µM [rising, single point]	
CC(OC(=O)CN1C(=O)C2CC=CCC2C1=O)C(=O)Nc1ccc(F)cc1Cl (stereo not given)	11.2 µM [rising, single point]	
O=C(N/N=C/c1ccccc1OC(=O)N1CCOCC1)c1cccs1	12.6 µM [falling, partial curve]	
CCOc1ccccc1N(C(=O)Nc1ccc(Cl)cc1)C1=NCCS1	4.61 µM [rising, full curve, poor fit]	
CC(=O)c1c(C)[nH]c(C(=O)Nc2nc(-c3ccc(-c4ccccc4)cc3)cs2)c1C	32.6 µM [rising, partial curve, poor fit]	

# Following part.

SMILES,AC50 [1],AC50 [2]
O=[N+]([O-])c1cc(/C=N/N2CCCCC2)ccc1Cl,"7.08 µM [rising, partial curve, poor fit]",
O=C(N/N=C/C=C/c1ccc(Br)cc1)C(O)c1ccccc1 (stereo not given),"5.17 µM [rising, partial curve, poor fit]",
Cc1ccc(C)c(NS(=O)(=O)c2cc(C(=O)Nc3ccccc3-c3ccccc3)ccc2Cl)c1,"12.6 µM [falling, single point]","7.08 µM [rising, full curve, poor fit]"
COc1ccc(C(CC(=O)c2ccccc2)S(=O)(=O)c2ccc(C)cc2)cc1 (stereo not given),"0.355 µM [rising, partial curve, poor fit]",
COc1ccccc1N1CCN(S(=O)(=O)c2ccc3c(c2)n(C)c(=O)n3C)CC1,"6.31 µM [rising, single point]",
C=CCNC(=S)N1CCc2[nH]c3ccccc3c2C1,"0.447 µM [rising, full curve, poor fit]",
O=C(c1ccc(F)cc1)c1ccc(-c2ccc(F)cc2)nc1,"35.5 µM [falling, single point]","35.5 µM [rising, partial curve, poor fit]"
O=C(N/N=C\c1ccc2c(c1)OCO2)c1ccco1,"6.51 µM [falling, partial curve]",
COc1ccc(C(C)(C)C)cc1NC(=O)COC(=O)CSCc1c(C)noc1C,"29.1 µM [rising, partial curve, poor fit]",
CC[C@@H]1C(c2cccc(C)c2)=NN(c2ccccc2)[C@H]1C(=O)N1CCOC1=O,"29.1 µM [rising, partial curve, poor fit]",
COc1ccc(CCn2c(SCCN3CCCCC3)nc3ccccc3c2=O)cc1OC,"2.51 µM [rising, full curve, poor fit]",
CCn1c(CNc2cccc(Cl)c2)nnc1SCC(=O)OC1CCCCC1,"29.1 µM [falling, single point]",
Cc1ccc(Nc2cc(-n3cccn3)ncn2)c(C)c1,"0.259 µM [rising, full curve, poor fit]",
Cc1ccc(C2C3=C(CC(C)(C)CC3=O)NC3=C2C(=O)c2ccccc23)cc1 (stereo not given),"32.6 µM [falling, partial curve, poor fit]",
CCOc1ccc(-c2nc(N)ncc2-c2ccccc2OC)c(O)c1,"3.16 µM [rising, single point]",
CCOCCCNC(=O)c1ccc2c(c1)ncn2-c1ccc(CC)cc1,"3.16 µM [rising, partial curve, poor fit]",
CC12CN(C(=O)c3ccc([N+](=O)[O-])cc3)CC(C)(CN(C(=O)c3ccc([N+](=O)[O-])cc3)C1)C2=O,"25.1 µM [rising, single point]",
CC(C)C(=O)Nc1cccc(C(=O)Nc2ccccc2C(=O)O)c1,"29.1 µM [falling, single point]",
Cc1cccc(NC(=O)CSCC(=O)Nc2cccc(S(=O)(=O)N3CCCCCC3)c2)c1,"14.6 µM [falling, single point]",
O=C(NCCC1=CCCCC1)c1cc2c(s1)CS(=O)(=O)C2,"23.1 µM [rising, partial curve, poor fit]",
